In PMC11651612:
No constants are given. Whether binding was seen depends on the method and setting. In cells and extracts the contact can be indirect. A yes stands for co-enrichment or nearness to the bait. Other partners may have been found. Tags and fused reporters may be left off the sequences shown.

Each binder was assayed against T1, Cdc3-mCherry (C. neoformans) (UniProt J9VUF2) (assay: affinity purification with mass spectrometry; mCherry-tagged septin captured from C. neoformans lysate on RFP-Trap agarose, 4 h at 4°C, washed with TBS with 2 M urea pH 7.5; GeLC-MS/MS; untagged H99 as negative control; hits logFC >2 and adjusted p <0.001 (text-named hits <0.05); exponential cultures at ~25°C or shifted to 37°C for 2 h; N = 5).
T1 sequence: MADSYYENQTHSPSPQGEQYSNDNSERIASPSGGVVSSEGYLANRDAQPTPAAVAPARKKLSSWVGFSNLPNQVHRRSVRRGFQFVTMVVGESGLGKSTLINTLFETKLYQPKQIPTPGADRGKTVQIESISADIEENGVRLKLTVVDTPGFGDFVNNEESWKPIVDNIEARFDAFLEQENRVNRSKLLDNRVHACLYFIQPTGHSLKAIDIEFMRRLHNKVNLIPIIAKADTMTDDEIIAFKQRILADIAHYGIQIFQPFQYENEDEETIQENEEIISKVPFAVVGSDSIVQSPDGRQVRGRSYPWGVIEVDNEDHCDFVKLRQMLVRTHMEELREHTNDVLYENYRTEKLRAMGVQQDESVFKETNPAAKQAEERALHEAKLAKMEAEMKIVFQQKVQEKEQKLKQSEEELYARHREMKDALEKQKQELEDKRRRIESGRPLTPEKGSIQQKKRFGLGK

Binder | binding
Midasin (protein, UniProt J9VK61 1-972) MSSLGQKKQAPTPSKTPKKPTQNPEKGASGALGSVKDTAGGATKTAGDTVSGATKQAPGPAKDVGKKVGDTAKDVGGKTSQAAQNPTTPKKAPQPKQAADSPTKKASEGTDKLQKQGEDVAKTAQKQDVKPASAGKGPEKEAAPQTPQEEAAPQTPQEGAAPQTPQEEAAPQTPQQESDDEDKGENQDDNKGEEEEGNDEPVEDEPEGQDQNEGAPEGESGDEDAAKPETLDEPAGDAGGEEQGAPVSDDKEGGVDQAVDKANENKPDDKEGGVDQAVDEANENKPDDKEGGVDQAVDKANENKPEFTGPLTVDQTGKIKDADDRTIASVSEEDAKKLEGSEIADIDASGNLMNKEGDVIGNAELGQGLAQAEEQIDYSVLKGLSPNKAGNLVAKDGITVGKVVDGNLKKLQGRRCTAKGEFFDDAGKKIGQAEPIPEDERSNPEGAPFEDFEGATVQQNGDVVHNGAKVGEIVEGDAKKIAGKTVDADGDVVDKSGTIVGKAQRWYEPEEQEPEKADLSLLAGNRVNKSGYIVDNSGKLLGRVVEGDPAKLAGKMCDKEGQIWNEGGSVVGRAELLPESEREGQKEGPFSDFQPATVRKDGKVIDNSGTVIGRLVEGDAAKLHGKSVDEQGDVVDKNGNKIGSAERWEEEEKEEEKHPAAGLKVNNEGAVIDNNGNTVAKLTEGEISRCRGKEIDNDGDVVDGKGKSIGRVTLVQDLPKRDEAAEQKKAEEEEARKAAEQKKAEEDEERKAAEQKKAEEDEERKKKEDEELKKLEGDSKLAKRMAYEVDSTLDRIKPVLEEMTDLIEDAHSKPKEEVDQEALVKKVKPLIHKSSDILNQCNSNIREMDPDGRMQQQAKENAATGEATPEERHLAEGLKKLSTEVTDAIRKGKKGIEGMPEAKKGISPLWRLLEQPLVQILAAVGLLLSGVLGLVNQLLGGLGLNGLLDGLLGGLGLDKLLGGLGIPKLGGK | binds
ULP_PROTEASE domain-containing protein (protein, UniProt J9VVE7 1-908) MSVAATKSEISHNPGKMSVTSAVSGEKVEGDVQSRMKLFGAIQAFRDGRMPDNEQIGSVLEYAIGHSPVDLQKLSPEGRVLIEDFRDTLETLRMIVHEKNSDELFQNAVWSSYHGDVSKAKQDGVIPVSNEQAKQDGKTAASHIRVLITLFLTNSEARKLLKDFGIVGRDIFATAATKAADKSRPSQEKLDSVDQEAPSHEWIGADGKRLGPNETPDIQIKGPGGTQARYHPRDDPRDAQLVDDKGKTRSAGEAYNQAQEAKSDAQSKAQDLKSSARDYKETGKQQARSHAQDVAGNRDPNASLSEQKEQVKGAAYDKRDAANAQADQNLPDPNDEGNQEKARGKAAALRDRIPEEHRQKAADYIQKSKNFVNDELPEERRDQFIYRLKKVVVECQGHKDYQEAMTWLLDTLENYRGHAKHVANKGTESAQTVANDPAVGDSTIQFRTLLERFANGKSLDNVFSALDQIYTDVQNDSELREWFTTFNDYMHRVLLEPGYILDEDSDREARQLRESGRRFFQDKYKAHQELLFDELQVWLTAFGEDPLNVRLGDDIKRFCKDLLFNHEGNLTFKPKLWNDVRQVLLPMLLKQVSYVPIPRAEYSDNSIDLVIEDLILSGPNLFPNLVHIESFNSFSFSPYPKLNKTMDNQHHKFRLSLSQIQADIRDVAFAFRRKSGWPKLSDHGLADVVLAGKGISVDVELESIENRRDTVFKTNFIHVNIDTLKFSIRNSKHDLLYKFIKSTATGLIKRAITAAVQNAMHTALGHLDEQLVEVRNRVDEAKQSDETTRTQALKDLYSRKKESAQEKKAAADEKTGTFKIITDRDSQLNPELTHDGGKSWAKRAFKVEDAARTGKEWRSPAFNLIDPAHPAVTGQHHPAVQNADVESEKLKQRAEAAAPGVAAGTKRM | binds
Glucose and ribitol dehydrogenase (protein, UniProt J9VLN0 1-305) MPPPSSVPKEYRPGYIPPSITGQAQKDLPGKQRPLDPTPFNDVMADGSKYKPAGKLEGKNAVVTGGDSGIGRAVAILYALEGANVLFTYHPSEEADAKDTVDDIKKRAPKAKVEAVAAEIQTEKACFELADKIKKWSGNELHVLANNAGTQKEIPNIEDLPSEQWRHVFDVNIHSMFYLIKSLIPIMPWGSSIINNASINPFVGHPKLLDYTATKGAIVGFSRALSNQIVGERGIRVNCVCPGPIWTPLIVATMGEESLKAFGPGTPIGRAGQPVEVATAFVFLASIDSSYFTAQCFHVNGGSAY | binds
Chlorophyll synthesis pathway protein BchC (protein, UniProt J9VU15 1-349) MVAKEMNALLYSEPRKFEITKVPVPEIGPEEVLLKVDICGVCGTDQHIHEGEFIAKFPLVPGHEAVGRIVAMGDKVKGFDVGDRIAADVGETCGYCHYCRKGTELFCENFAPAGVARDGGFADYIKYHFAKCYKIKNLSDEEATLLEPASCAIHGMDVLKMPFGARVLLIGAGPTGLILAQLMKMGGASHITIAANAGIKMDIARKVEAADEYIDLDRSNPGPQWAKLKEDNPYGFDVVAEATGVESLVNDAINYVTRGGTLLVYGVYEDKARLPGWSPTDIFVNEKRIIGSFSQTYCFPRAIDLLDSGKIKTTGMVTDVFPLSDYQGALDKMASRKALKIAIKPEHKD | binds
Pre-mRNA-splicing factor CWC24 (protein, UniProt J9VRG9 1-328) MSEAPAPVVTFKKGPSRRPAQSRQRRRSPSPLDPVAETSASASSSSVVRPEKKSLANPLVQGTKRRRTNANNEEENGVGGGLDEFDYAAEGGLTRKGDELATRANDWDLEDGDGQGKRDKKVRLDEDGEIVTDDGLYRGASAYLPTINKTRETLDKKMKSGPIKATSHVRTITLMDYQPDVCKDYKETGFCGYGDSCKFLHDRGDYLAGWQLDKLPEEGVREVEEEDEEEEVPFACLICRQPFTQPVVTKCGHYFCMGCAAKRFQKSPKCYACGAPTQGIFNIADKVIAKIEARNKARREAREERAEQTGGGGIEIGGGSDDEGSDEE | binds
Porphobilinogen deaminase (protein, UniProt J9VZ65 1-481) MSCPFHTTTNTSIRNPLPDRALLLAMKSQTNTFILGTRKSNLALVQTGHVADDLRRLHSAAGSKFGETREEGDDAEQGDVPFVHPYTFSIESMTTVGDRNQTTPLHLLSPYSSTQPAKSLWTDELEARLINGHFDMLVHSLKDVPTVLKDGCEIGCMAKRHDPRDALVVKQGLPYKRLEDLPDGAVVGTGSVRRVAQLKRAFPNLVFEDMRGNLNTRFNKLDNPQSPFSALILAMSGLERLGMAHRATSPLSSPTLMHAVGQGALAIEIRSTDPRVRNCLRGLGHWQTEWSCGAERGCLRVLEGGCSVPVGVESELVELDEDEVAAHPELLEGVEDPFRGQEESPLEGDSPMLWFSGLVDTTSTPTPSTPTFSSHSLPPLRTRLAKLTLHSCVTSTDGSKHVLFTPPPVLVRSYRQAEQFGEECARKLRGMGAGEILDEINKLRKERELRDLESAIERSRAAQEEGEKMGLVQDGTAEVVA | binds
Fumarate reductase (protein, UniProt J9VYC0 1-637) MSKVKVIIVGGGLSGLSAAHTVLERGGNVLLLDKNSFMGGNSTKATSGINGANTQAQQALGIPDTSAKFFADTKKSARELARDDLIRVLTYKSGDAVNWLIERFNLDLSKVSRLGGHSEKRTHRGTQQFPGMTITYALMEKLEDMAEQHPDRVKILKKAKVTKLLQENGKVIGVDYEREGKHYTEYGPVVLATGGYAADFTADSLLKQHRPEYYNLPTTNGDHCTGDGHKMAMLIGAKGIDLEKVQVHPTGLVDPKDPDAKVKFLAAEALRGVGGLLINRDGERFVDELEHRDYVTGKMWENDKFPVRLVLNSTSSKEIEWHCKHYVGRGLMKKFNSGEELAKEIGCSPEALKKTFDDHNRYAKNPGTDPFGKKFFSGGDFSMSDTYHAAIMTPVLHYTMGGLEIGINAAVHNANGGEVEGLYACGELAGGVHGANRLGGSSLLGCVVFGRVAGDSVSSYLLSSLANADANVKAAKRLGTINNHLVETKIKLDPESKALQVSFSWGDKTGDQSQKDAGGAQVPANSAPGQKGDRTAAEIEPEALPTPPAKKGSEKGTSDKKEYTLEEVAKHNTEKDCWVVIGGQVLDVTNFLEDHPGGVKAIMLYAGRDATEEFDMIHPPNAIAKYAPDTVIGTIKQ | binds
